{
  "source": "the supplement of paper PMC8728848",
  "experiment_in_all_cases": "glycan array binding signal (z-score within array); higher = stronger binding",
  "conditions_in_all_cases": "glycan notation: IUPAC condensed, linker removed",
  "key": {"Fuc(a1-2)Gal": {"target": "Fuc(a1-2)Gal", "summary_of_the_method": "(§1)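 Glycan array data were curated from 3228 arrays in the Consortium for Functional Glycomics database and kept only where the protein sequence was available. Glycan names were converted to IUPAC-condensed notation, and columns mapping to the same glycan were averaged. The binding signal is a within-array Z-score, averaged across arrays of the same protein sequence at different concentrations or buffers and across linkers. Negative Z-scores can be read as non-binding.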"}, "Fuc(a1-2)Gal(b1-3)GalNAc": {"target": "Fuc(a1-2)Gal(b1-3)GalNAc", "summary_of_the_method": "as §1"}, "[1]": {"target": "Fuc(a1-2)Gal(b1-3)GalNAc(a1-3)[Fuc(a1-2)]Gal(b1-4)Glc", "summary_of_the_method": "as §1"}, "[2]": {"target": "Fuc(a1-2)Gal(b1-3)GalNAc(a1-3)[Fuc(a1-2)]Gal(b1-4)GlcNAc", "summary_of_the_method": "as §1"}, "[3]": {"target": "Fuc(a1-2)Gal(b1-3)GalNAc(b1-3)Gal", "summary_of_the_method": "as §1"}, "[4]": {"target": "Fuc(a1-2)Gal(b1-3)GalNAc(b1-3)Gal(a1-4)Gal(b1-4)Glc", "summary_of_the_method": "as §1"}, "[5]": {"target": "Fuc(a1-2)Gal(b1-3)GalNAc(b1-4)[Neu5Ac(a2-3)]Gal(b1-4)Glc", "summary_of_the_method": "as §1"}, "Fuc(a1-2)Gal(b1-3)GlcNAc": {"target": "Fuc(a1-2)Gal(b1-3)GlcNAc", "summary_of_the_method": "as §1"}, "[6]": {"target": "Fuc(a1-2)Gal(b1-3)GlcNAc(b1-2)Man(a1-3)[Fuc(a1-2)Gal(b1-3)GlcNAc(b1-2)Man(a1-6)]Man(b1-4)GlcNAc(b1-4)GlcNAc", "summary_of_the_method": "as §1"}, "[7]": {"target": "Fuc(a1-2)Gal(b1-3)GlcNAc(b1-2)Man(a1-3)[Fuc(a1-2)Gal(b1-3)GlcNAc(b1-2)Man(a1-6)]Man(b1-4)GlcNAc(b1-4)[Fuc(a1-6)]GlcNAc", "summary_of_the_method": "as §1"}, "[8]": {"target": "Fuc(a1-2)Gal(b1-3)GlcNAc(b1-3)Gal(b1-4)Glc", "summary_of_the_method": "as §1"}, "[9]": {"target": "Fuc(a1-2)Gal(b1-3)GlcNAc(b1-3)GalNAc", "summary_of_the_method": "as §1"}, "[10]": {"target": "Fuc(a1-2)Gal(b1-3)GlcNAc(b1-3)[Fuc(a1-2)Gal(b1-3)GlcNAc(b1-6)]GalNAc", "summary_of_the_method": "as §1"}, "[11]": {"target": "Fuc(a1-2)Gal(b1-3)GlcNAc(b1-3)[Gal(b1-4)GlcNAc(b1-6)]Gal(b1-4)Glc", "summary_of_the_method": "as §1"}, "[12]": {"target": "Fuc(a1-2)Gal(b1-3)GlcNAc(b1-3)[Neu5Ac(a2-6)Gal(b1-4)GlcNAc(b1-6)]Gal(b1-4)Glc", "summary_of_the_method": "as §1"}, "[13]": {"target": "Fuc(a1-2)Gal(b1-3)GlcNAc6S", "summary_of_the_method": "as §1"}, "[14]": {"target": "Fuc(a1-2)Gal(b1-3)[Fuc(a1-4)]GlcNAc", "summary_of_the_method": "as §1"}, "[15]": {"target": "Fuc(a1-2)Gal(b1-3)[Fuc(a1-4)]GlcNAc(b1-2)Man(a1-3)[Fuc(a1-2)Gal(b1-3)[Fuc(a1-4)]GlcNAc(b1-2)Man(a1-3)]Man(b1-4)GlcNAc(b1-4)GlcNAc", "summary_of_the_method": "as §1"}, "[16]": {"target": "Fuc(a1-2)Gal(b1-3)[Fuc(a1-4)]GlcNAc(b1-2)Man(a1-3)[Fuc(a1-2)Gal(b1-3)[Fuc(a1-4)]GlcNAc(b1-2)Man(a1-6)]Man(b1-4)GlcNAc(b1-4)[Fuc(a1-6)]GlcNAc(b1-4)[Fuc(a1-6)]GlcNAc", "summary_of_the_method": "as §1"}, "[17]": {"target": "Fuc(a1-2)Gal(b1-3)[Fuc(a1-4)]GlcNAc(b1-3)[Fuc(a1-3)[Gal(b1-4)]GlcNAc(b1-6)]Gal(b1-4)Glc", "summary_of_the_method": "as §1"}, "[18]": {"target": "Fuc(a1-2)Gal(b1-3)[Fuc(a1-4)]GlcNAc(b1-3)[Gal(b1-4)GlcNAc(b1-6)]Gal(b1-4)Glc", "summary_of_the_method": "as §1"}, "[19]": {"target": "Fuc(a1-2)Gal(b1-4)Fuc(a1-3)]GlcNAc(b1-2)Man(a1-3)[Fuc(a1-2)Gal(b1-4)[Fuc(a1-3)]GlcNAc(b1-2)Man(a1-6)]Man(b1-4)GlcNAc(b1-4)GlcNAc", "summary_of_the_method": "as §1"}, "Fuc(a1-2)Gal(b1-4)Glc": {"target": "Fuc(a1-2)Gal(b1-4)Glc", "summary_of_the_method": "as §1"}, "Fuc(a1-2)Gal(b1-4)Glc6S": {"target": "Fuc(a1-2)Gal(b1-4)Glc6S", "summary_of_the_method": "as §1"}, "Fuc(a1-2)Gal(b1-4)GlcNAc": {"target": "Fuc(a1-2)Gal(b1-4)GlcNAc", "summary_of_the_method": "as §1"}, "[20]": {"target": "Fuc(a1-2)Gal(b1-4)GlcNAc(b1-2)Man", "summary_of_the_method": "as §1"}, "[21]": {"target": "Fuc(a1-2)Gal(b1-4)GlcNAc(b1-2)Man(a1-3)[Fuc(a1-2)Gal(b1-4)GlcNAc(b1-2)Man(a1-6)]Man(b1-4)GlcNAc(b1-4)GlcNAc", "summary_of_the_method": "as §1"}, "[22]": {"target": "Fuc(a1-2)Gal(b1-4)GlcNAc(b1-2)Man(a1-3)[Fuc(a1-2)Gal(b1-4)GlcNAc(b1-2)Man(a1-6)]Man(b1-4)GlcNAc(b1-4)[Fuc(a1-6)]GlcNAc", "summary_of_the_method": "as §1"}, "[23]": {"target": "Fuc(a1-2)Gal(b1-4)GlcNAc(b1-2)[Fuc(a1-2)Gal(b1-4)GlcNAc(b1-4)]Man(a1-3)[Fuc(a1-2)Gal(b1-4)GlcNAc(b1-2)Man(a1-6)]Man(b1-4)GlcNAc(b1-4)GlcNAc", "summary_of_the_method": "as §1"}, "[24]": {"target": "Fuc(a1-2)Gal(b1-4)GlcNAc(b1-3)Gal(b1-4)GlcNAc", "summary_of_the_method": "as §1"}, "[25]": {"target": "Fuc(a1-2)Gal(b1-4)GlcNAc(b1-3)Gal(b1-4)GlcNAc(b1-2)Man(a1-3)[Fuc(a1-2)Gal(b1-4)GlcNAc(b1-3)Gal(b1-4)GlcNAc(b1-2)Man(a1-6)]Man(b1-4)GlcNAc(b1-4)GlcNAc", "summary_of_the_method": "as §1"}, "[26]": {"target": "Fuc(a1-2)Gal(b1-4)GlcNAc(b1-3)Gal(b1-4)GlcNAc(b1-3)Gal(b1-4)GlcNAc", "summary_of_the_method": "as §1"}, "[27]": {"target": "Fuc(a1-2)Gal(b1-4)GlcNAc(b1-3)GalNAc", "summary_of_the_method": "as §1"}, "[28]": {"target": "Fuc(a1-2)Gal(b1-4)GlcNAc(b1-3)[Fuc(a1-2)Gal(b1-4)GlcNAc(b1-6)]GalNAc", "summary_of_the_method": "as §1"}, "[29]": {"target": "Fuc(a1-2)Gal(b1-4)GlcNAc(b1-3)[Fuc(a1-3)[Gal(b1-4)]GlcNAc(b1-6)]Gal(b1-4)Glc", "summary_of_the_method": "as §1"}, "[30]": {"target": "Fuc(a1-2)Gal(b1-4)GlcNAc(b1-6)GalNAc", "summary_of_the_method": "as §1"}, "[31]": {"target": "Fuc(a1-2)Gal(b1-4)GlcNAc6S", "summary_of_the_method": "as §1"}},
  "note": "The list shows a part of the results.",
  "data": [
    {"binder": "AT3G09350(27) (Arabidopsis thaliana), Q84J81 (protein) MAKDGPNWDGLLKWSLSHADGTRPTRQLSEEDRKWFMEAMQSQTVDVVKRMKEITLVMQTPEQVLVEHGVTPEDIQDLLDELQEHVESIDMANDLHSIGGLVPLLSFLKNSHANIRAKAADVVSTIVQNNPRSQELVMETNALESLLSNFTSDTDIHARTQALGAISSLIRHNKPGVTAFKLANGYAGLRDALASDSVRFQRKALNLLQYLLQEDDSDRSIATGLGFPRVMMHLASSDDAEIREAALRGLLELSREKNDGSSSIDKSDEKLRQLLEERIKGITLMSQEDLETVKEERQLVDLLWSICYNEPSSLREKGLVVLPGEDALPPDVASKLFEPPLRASAANRNATEKKDEPMKLLGP", "values": [
      {"measurement": "glycan array binding signal (z-score)", "setting": "Fuc(a1-2)Gal", "value": -0.113},
      {"measurement": "glycan array binding signal (z-score)", "setting": "Fuc(a1-2)Gal(b1-3)GalNAc", "value": -0.754},
      {"measurement": "glycan array binding signal (z-score)", "setting": "[1]", "value": 0.096},
      {"measurement": "glycan array binding signal (z-score)", "setting": "[2]", "value": 1.02},
      {"measurement": "glycan array binding signal (z-score)", "setting": "[3]", "value": 0.333},
      {"measurement": "glycan array binding signal (z-score)", "setting": "[4]", "value": -0.536},
      {"measurement": "glycan array binding signal (z-score)", "setting": "[5]", "value": -0.077},
      {"measurement": "glycan array binding signal (z-score)", "setting": "Fuc(a1-2)Gal(b1-3)GlcNAc", "value": -0.162},
      {"measurement": "glycan array binding signal (z-score)", "setting": "[6]", "value": 0.438},
      {"measurement": "glycan array binding signal (z-score)", "setting": "[7]", "value": 0.64},
      {"measurement": "glycan array binding signal (z-score)", "setting": "[8]", "value": 0.444},
      {"measurement": "glycan array binding signal (z-score)", "setting": "[9]", "value": 0.676},
      {"measurement": "glycan array binding signal (z-score)", "setting": "[10]", "value": 0.107},
      {"measurement": "glycan array binding signal (z-score)", "setting": "[11]", "value": -0.798},
      {"measurement": "glycan array binding signal (z-score)", "setting": "[12]", "value": -0.247},
      {"measurement": "glycan array binding signal (z-score)", "setting": "[13]", "value": -0.564},
      {"measurement": "glycan array binding signal (z-score)", "setting": "[14]", "value": -0.534},
      {"measurement": "glycan array binding signal (z-score)", "setting": "[15]", "value": -0.391},
      {"measurement": "glycan array binding signal (z-score)", "setting": "[16]", "value": 0.18},
      {"measurement": "glycan array binding signal (z-score)", "setting": "[17]", "value": -0.224},
      {"measurement": "glycan array binding signal (z-score)", "setting": "[18]", "value": -0.502},
      {"measurement": "glycan array binding signal (z-score)", "setting": "[19]", "value": -0.28},
      {"measurement": "glycan array binding signal (z-score)", "setting": "Fuc(a1-2)Gal(b1-4)Glc", "value": 0.722},
      {"measurement": "glycan array binding signal (z-score)", "setting": "Fuc(a1-2)Gal(b1-4)Glc6S", "value": -0.455},
      {"measurement": "glycan array binding signal (z-score)", "setting": "Fuc(a1-2)Gal(b1-4)GlcNAc", "value": -0.391},
      {"measurement": "glycan array binding signal (z-score)", "setting": "[20]", "value": -0.62},
      {"measurement": "glycan array binding signal (z-score)", "setting": "[21]", "value": -0.309},
      {"measurement": "glycan array binding signal (z-score)", "setting": "[22]", "value": -0.249},
      {"measurement": "glycan array binding signal (z-score)", "setting": "[23]", "value": -0.227},
      {"measurement": "glycan array binding signal (z-score)", "setting": "[24]", "value": -0.759},
      {"measurement": "glycan array binding signal (z-score)", "setting": "[25]", "value": -0.726},
      {"measurement": "glycan array binding signal (z-score)", "setting": "[26]", "value": 1},
      {"measurement": "glycan array binding signal (z-score)", "setting": "[27]", "value": -0.428},
      {"measurement": "glycan array binding signal (z-score)", "setting": "[28]", "value": -0.175},
      {"measurement": "glycan array binding signal (z-score)", "setting": "[29]", "value": -0.595},
      {"measurement": "glycan array binding signal (z-score)", "setting": "[30]", "value": 0.775},
      {"measurement": "glycan array binding signal (z-score)", "setting": "[31]", "value": -0.054}
    ]}
  ]
}
